Values from PubChem BioAssay AID686938 (Drosophila RNAi Screening Center, 2013).

Aim: 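Knock-downs reducing store-operated calcium influx in Drosophila cells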 (primary screen)
Cells: Drosophila S2R+ cells
Reagents: long dsRNA against Drosophila genes, about 0.25 µg dsRNA per well, roughly 10,000 cells
Duration: 5 days of knock-down before the calcium assay
Treatment: thapsigargin (SERCA pump blocker) to empty calcium stores; entry signal taken 4 min after adding it
Read-out: 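Duplicate raw fluo-4 intensities per well from a plate reader, at rest and four minutes after thapsigargin emptied calcium stores; entry-to-rest ratio filled for only some wells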
Scale: calcium entry signal: higher = stronger calcium signal after store depletion; resting calcium signal: higher = higher resting calcium signal
Rule for the call: 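Hit if the duplicate-averaged plate z-score for entry over resting signal is under −3; wells with weak total dye signal (Fmax z < −2) or more than 5 off-targets removed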
Meaning of the calls: active = strongly reduced calcium entry; inactive = no strong reduction
The deposit covers about 23,000 reagents; this is a random part of those with a known target gene and a result. Over the whole deposit, 75 (0.33%) are marked active. 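Raw plate signals without normalisation; calls rest on plate z-scores that were not deposited; ratio present for only 364 wells.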 Entries without a mark were called inactive. The record does not give: the dose of the treatment.

| gene | dsRNA | calcium entry signal, replicate 1 (fluorescence units) | calcium entry signal, replicate 2 (fluorescence units) | resting calcium signal, replicate 1 (fluorescence units) | resting calcium signal, replicate 2 (fluorescence units) |
| --- | --- | --- | --- | --- | --- |
| CG13066 | DRSC09949 | 3.73e7 | 6.33e7 | 1.95e7 | 2.58e7 |
| CG34354 | DRSC13863 | 4.26e7 | 4.15e7 | 1.88e7 | 2.08e7 |
| CG34354 | DRSC14515 | 2.37e7 | 3.48e7 | 1.41e7 | 1.74e7 |
| CG34354 | DRSC14558 | 2.14e7 | 3.32e7 | 1.43e7 | 1.83e7 |
| CG34354 | DRSC15645 | 3.42e7 | 4.61e7 | 1.84e7 | 2.02e7 |
| CG34354 | DRSC23054 | 3.67e7 | 2.95e7 | 2.20e7 | 1.42e7 |
| sti | DRSC09739 | 1.80e7 | 1.68e7 | 1.19e7 | 1.09e7 |
| sti | DRSC09740 | 1.73e7 (active) | 1.68e7 | 1.15e7 | 1.14e7 |
| bond | DRSC16135 | 3.74e7 | 2.54e7 | 1.80e7 | 1.39e7 |
| cta | DRSC03769 | 4.29e7 | – | 2.12e7 | – |
| CG12061 | DRSC20715 | 4.06e7 | 4.46e7 | 2.11e7 | 2.05e7 |
| Jon99Ci | DRSC16860 | 3.55e7 | 6.32e7 | 1.89e7 | 2.71e7 |
| Cyp4p3 | DRSC07374 | 6.28e7 | 4.72e7 | 2.71e7 | 1.99e7 |
| TM9SF3 | DRSC09747 | 3.81e7 | 4.87e7 | 1.74e7 | 2.11e7 |
| E(spl)mdelta-HLH | DRSC16698 | 3.86e7 | 5.76e7 | 2.00e7 | 2.15e7 |
| ALiX | DRSC14564 | 3.26e7 | 4.70e7 | 1.68e7 | 1.99e7 |
| cocoon | DRSC10916 | 3.70e7 | 6.32e7 | 1.93e7 | 2.52e7 |
| lush | DRSC11364 | 2.71e7 | 4.66e7 | 1.34e7 | 1.96e7 |
| CG13694 | DRSC00363 | 4.44e7 | 4.83e7 | 2.05e7 | 2.17e7 |
| lncRNA:CR32027 | DRSC09571 | 3.64e7 | 3.29e7 | 1.83e7 | 1.88e7 |
| CG9961 | DRSC00738 | 4.04e7 | 4.83e7 | 1.97e7 | 2.17e7 |
| CG9961 | DRSC23343 | 3.19e7 | 3.48e7 | 1.87e7 | 1.59e7 |
| CG14569 | DRSC11730 | 2.73e7 | 4.42e7 | 1.30e7 | 1.85e7 |
| inaF-C | DRSC18902 | 2.81e7 | 2.99e7 | 1.50e7 | 1.36e7 |

Hits, among the entries above:
| gene | dsRNA | calcium entry signal, replicate 1 (fluorescence units) | calcium entry signal, replicate 2 (fluorescence units) | resting calcium signal, replicate 1 (fluorescence units) | resting calcium signal, replicate 2 (fluorescence units) |
| --- | --- | --- | --- | --- | --- |
| sti | DRSC09740 | 1.73e7 (active) | 1.68e7 | 1.15e7 | 1.14e7 |
